Assay results as given in patent US11806314B2, “PDE5 inhibitor powder formulations and methods relating thereto” (Respira Therapeutics, Inc., priority 2013, dated 2023).

Experiment: Aerosol performance, Next Generation Impactor (NGI) with powder deaggregator and RS01 capsule piercing mechanism
Type: physicochemical
Conditions: pure drug (100% API)
Description: There are several inertia sampling apparatuses that can be used to assess aerosol performance of dry powder formulations. (<601> Aerosols, Nasal Sprays, Metered-Dose Inhalers, and Dry Powder Inhalers Monograph, in USP 29-NF 24 The United States Pharmacopoeia and The National Formulary: The Official Compendia of Standards. 2006, The United States Pharmacopeial Convention, Inc.: Rockville, Md. p. 2617-2636 (“USP<601>”).) These apparatus classify aerosol particles on the basis of the particles' aerodynamic diameter. Each stage of the impactor includes a single or series of nozzles with specific cutoff size. Particles are entrained into the apparatus. […] The aerodynamic size distribution of API can be assessed by collecting the deposited API mass and the ED %, RF %, FPF % and MMAD (μm) can be calculated from the API deposition pattern. The emitted dose fraction (ED (%); Eq. 4) is determined as the percentage powder mass emitted from the initial dosing chamber/capsule relative to the total dose in capsules (nominal dose) (TD). […] Fine particle fraction (FPF (%); Eq. 5) is expressed as a percentage of fine particle dose (FPD) below a certain aerodynamic cutoff size to ED. […]

SMILES: CCCc1nc(C)c2c(=O)[nH]c(-c3cc(S(=O)(=O)N4CCN(CC)CC4)ccc3OCC)nn12 [Var(HCl)2•xH2O (rehydrated), dihydrochloride hydrate]
- % Recvy (3 mg dose): 100.1%

SMILES: CCCc1nc(C)c2c(=O)[nH]c(-c3cc(S(=O)(=O)N4CCN(CC)CC4)ccc3OCC)nn12 [VarBase, 2-[2-ethoxy-5-(4-ethylpiperazin-1-yl)sulfonylphenyl]-5-methyl-7-propyl-1H-imidazo[5,1-i][1,2,4]triazin-4-one]
- % Recvy (10 mg dose): 115.2%

Where a name gives a salt, the structure may show the parent alone.
